Measured data: PubChem BioAssay AID1259308 (NCATS, 2017)
Aim: 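Knock-downs that increase output of a recombinant reporter protein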 (primary screen). System: human HEK293 embryonic kidney cells stably expressing firefly luciferase (HEK-CMV-Luc2-Hygro). Reagents: single siRNA against human genes, 0.8 pmol siRNA per well. Timing: 72 h. Measured: 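Luciferase light (ONE-Glo) measured on one replicate plate set and viability (CellTiter-Glo) on the other, scaled to a negative control siRNA, with robust z-scores and luciferase per cell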. Reading the numbers: total luciferase, z-score and total luciferase, % of control: higher = more reporter protein produced. Rule for the call: 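An siRNA counts as active if its total luciferase robust z-score exceeds 3; genes with two or more such siRNAs out of three were retested with fresh siRNAs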. Meaning of the calls: active = raised luciferase; inactive = no rise.
In all, the deposit lists about 59,000 reagents; below is a random part of them. In the full data, about 1,510 (2.6%) were called active. 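Calls use total luciferase alone and ignore viability, so some active siRNAs may act by altering cell number.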 Reagents against one gene are numbered here. Further read-outs or replicates are left out here. Reagent sequences are not shown.

For CYP26C1 #1 the deposit lists total luciferase, z-score -0.177; total luciferase, % of control 78.4; inactive.
CYP26C1 #2 gave total luciferase, z-score 0.908; total luciferase, % of control 99.9; inactive.
After knock-down of CYP26C1 #3 the results were total luciferase, z-score 1.45; total luciferase, % of control 111; inactive.
Depletion of SCRT1 #1 gave: total luciferase, z-score 0.199; total luciferase, % of control 85.8; inactive.
SCRT1 #2 showed total luciferase, z-score -0.18; total luciferase, % of control 78.3; inactive.
SCRT1 #3 showed total luciferase, z-score 0.158; total luciferase, % of control 85; inactive.
TMEM44 #1 gave total luciferase, z-score -0.264; total luciferase, % of control 76.6; inactive.
Silencing of TMEM44 #2 came out at: total luciferase, z-score 1.41; total luciferase, % of control 110; inactive.
Depletion of TMEM44 #3 came out at: total luciferase, z-score 0.269; total luciferase, % of control 87.2; inactive.
For RAVER1 #1, the entry reads total luciferase, z-score -0.609; total luciferase, % of control 69.8; inactive.
RAVER1 #2 scored total luciferase, z-score -2.48; total luciferase, % of control 32.5; inactive.
Against RAVER1 #3, the values are total luciferase, z-score -1.7; total luciferase, % of control 48.1; inactive.
Against FANCM #1, the entry reads total luciferase, z-score -0.599; total luciferase, % of control 70; inactive.
Knock-down of FANCM #2 resulted in: total luciferase, z-score 0.636; total luciferase, % of control 94.5; inactive.
After knock-down of FANCM #3, the record shows total luciferase, z-score 0.537; total luciferase, % of control 92.6; inactive.
Against POLR2F #1, the values are total luciferase, z-score -1.3; total luciferase, % of control 56; inactive.
After knock-down of POLR2F #2, the record shows total luciferase, z-score -3.34; total luciferase, % of control 15.4; inactive.
With knock-down of POLR2F #3 the results were total luciferase, z-score -2.39; total luciferase, % of control 34.3; inactive.
Silencing of ZCCHC13 #1 gave: total luciferase, z-score -1.71; total luciferase, % of control 47.8; inactive.
Against ZCCHC13 #2, the values are total luciferase, z-score 0.12; total luciferase, % of control 84.3; inactive.
With knock-down of ZCCHC13 #3, the record shows total luciferase, z-score 0.188; total luciferase, % of control 85.6; inactive.
LINC02743 #1 showed total luciferase, z-score -1.38; total luciferase, % of control 54.5; inactive.
For LINC02743 #2, the values are total luciferase, z-score -0.335; total luciferase, % of control 75.2; inactive.
Knock-down of LINC02743 #3 resulted in: total luciferase, z-score 0.0536; total luciferase, % of control 83; inactive.
For CALCRL #1 the deposit lists total luciferase, z-score -0.641; total luciferase, % of control 69.1; inactive.
For CALCRL #2, the entry reads total luciferase, z-score 2.49; total luciferase, % of control 131; inactive.
For CALCRL #3, the entry reads total luciferase, z-score -2.02; total luciferase, % of control 41.8; inactive.
With knock-down of TBC1D12 #1 the results were total luciferase, z-score 3.24; total luciferase, % of control 146; active.
Knock-down of TBC1D12 #2 came out at: total luciferase, z-score -0.0311; total luciferase, % of control 81.3; inactive.
TBC1D12 #3 scored total luciferase, z-score 0.0456; total luciferase, % of control 82.8; inactive.
Depletion of FGF7P7 #1 gave: total luciferase, z-score -0.28; total luciferase, % of control 76.3; inactive.
Silencing of FGF7P7 #2 resulted in: total luciferase, z-score 0.587; total luciferase, % of control 93.6; inactive.
For FGF7P7 #3 the deposit lists total luciferase, z-score -0.783; total luciferase, % of control 66.3; inactive.
After knock-down of SPTY2D1 #1, the screen gave total luciferase, z-score 0.0277; total luciferase, % of control 82.4; inactive.
After knock-down of SPTY2D1 #2 the results were total luciferase, z-score -0.106; total luciferase, % of control 79.8; inactive.
Silencing of SPTY2D1 #3 came out at: total luciferase, z-score 0.402; total luciferase, % of control 89.9; inactive.
With knock-down of DLGAP1-AS5 #1, the screen gave total luciferase, z-score 1.08; total luciferase, % of control 103; inactive.
With knock-down of DLGAP1-AS5 #2, the record shows total luciferase, z-score 4.82; total luciferase, % of control 178; active.
With knock-down of DLGAP1-AS5 #3, the record shows total luciferase, z-score -0.867; total luciferase, % of control 64.6; inactive.
Depletion of MAP2K2 #1 gave: total luciferase, z-score -1.51; total luciferase, % of control 51.9; inactive.
Against MAP2K2 #2, the entry reads total luciferase, z-score 0.881; total luciferase, % of control 99.4; inactive.
Against MAP2K2 #3 the deposit lists total luciferase, z-score -1.45; total luciferase, % of control 53; inactive.

Look-ups from the entries so far:
RAVER1 #1, total luciferase, z-score = -0.609
TBC1D12 #1, total luciferase, % of control: 146
For “activity call”, FGF7P7 #3 is entered as inactive
